From the supplement of paper PMC10849652
The list shows a part of the results.

Sequences of proteins named here, by UniProt entry; tags and fusion partners are left off. A change or cut given only in a name is not applied to a line headed by its entry.
UniProt Q9UN86: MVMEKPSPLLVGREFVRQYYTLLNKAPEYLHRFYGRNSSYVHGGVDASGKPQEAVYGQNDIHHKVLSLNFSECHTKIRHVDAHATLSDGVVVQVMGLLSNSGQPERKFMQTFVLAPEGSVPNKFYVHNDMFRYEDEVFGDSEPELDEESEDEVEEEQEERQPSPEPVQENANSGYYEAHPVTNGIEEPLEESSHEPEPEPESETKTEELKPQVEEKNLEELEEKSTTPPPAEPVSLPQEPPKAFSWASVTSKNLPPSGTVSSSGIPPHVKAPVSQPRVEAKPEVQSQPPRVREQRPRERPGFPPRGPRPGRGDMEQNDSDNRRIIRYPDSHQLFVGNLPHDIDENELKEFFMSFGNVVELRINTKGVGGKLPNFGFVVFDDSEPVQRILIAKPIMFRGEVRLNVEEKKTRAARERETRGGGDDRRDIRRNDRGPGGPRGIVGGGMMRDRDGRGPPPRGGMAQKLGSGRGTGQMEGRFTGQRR
UniProt P50395: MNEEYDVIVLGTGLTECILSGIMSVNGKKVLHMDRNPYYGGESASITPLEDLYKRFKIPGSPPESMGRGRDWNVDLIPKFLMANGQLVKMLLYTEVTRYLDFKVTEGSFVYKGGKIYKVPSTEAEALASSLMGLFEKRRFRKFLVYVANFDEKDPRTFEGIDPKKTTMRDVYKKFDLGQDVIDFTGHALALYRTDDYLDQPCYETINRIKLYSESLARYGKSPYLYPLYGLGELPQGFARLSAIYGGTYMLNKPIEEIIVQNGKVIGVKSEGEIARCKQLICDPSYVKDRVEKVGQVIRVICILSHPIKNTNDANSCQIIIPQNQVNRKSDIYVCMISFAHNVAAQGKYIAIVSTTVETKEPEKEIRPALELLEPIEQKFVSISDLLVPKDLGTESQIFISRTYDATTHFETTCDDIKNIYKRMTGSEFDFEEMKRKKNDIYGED
UniProt Q8IXK2: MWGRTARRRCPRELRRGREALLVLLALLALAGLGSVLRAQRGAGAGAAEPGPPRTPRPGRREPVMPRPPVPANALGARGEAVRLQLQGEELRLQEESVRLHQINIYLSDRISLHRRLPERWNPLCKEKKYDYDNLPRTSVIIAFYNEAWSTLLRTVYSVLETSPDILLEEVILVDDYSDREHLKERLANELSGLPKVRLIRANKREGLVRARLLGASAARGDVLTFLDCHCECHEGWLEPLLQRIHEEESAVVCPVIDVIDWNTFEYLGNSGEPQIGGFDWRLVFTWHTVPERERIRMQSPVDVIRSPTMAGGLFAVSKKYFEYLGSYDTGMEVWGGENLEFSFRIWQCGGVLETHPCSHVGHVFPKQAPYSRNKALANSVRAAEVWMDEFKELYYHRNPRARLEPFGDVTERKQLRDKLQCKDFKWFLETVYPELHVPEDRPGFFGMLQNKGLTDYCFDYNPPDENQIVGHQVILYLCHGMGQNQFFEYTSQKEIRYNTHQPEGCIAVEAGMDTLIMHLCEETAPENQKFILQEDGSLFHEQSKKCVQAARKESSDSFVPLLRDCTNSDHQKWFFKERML
UniProt P60520, whole entry, looked up: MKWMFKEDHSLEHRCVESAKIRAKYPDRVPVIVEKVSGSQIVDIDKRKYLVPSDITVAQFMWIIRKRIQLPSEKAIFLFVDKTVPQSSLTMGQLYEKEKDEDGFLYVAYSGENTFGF
UniProt P51570: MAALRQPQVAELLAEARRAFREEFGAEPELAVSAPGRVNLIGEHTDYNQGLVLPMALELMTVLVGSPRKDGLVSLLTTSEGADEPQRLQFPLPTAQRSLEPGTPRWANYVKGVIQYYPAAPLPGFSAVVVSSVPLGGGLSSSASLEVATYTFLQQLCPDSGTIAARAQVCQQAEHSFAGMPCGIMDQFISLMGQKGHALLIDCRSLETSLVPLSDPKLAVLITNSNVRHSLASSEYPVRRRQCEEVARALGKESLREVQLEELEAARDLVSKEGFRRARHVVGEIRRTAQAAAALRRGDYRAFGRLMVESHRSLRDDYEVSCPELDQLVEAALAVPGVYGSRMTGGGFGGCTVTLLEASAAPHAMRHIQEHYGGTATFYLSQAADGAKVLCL
UniProt Q9BWH2: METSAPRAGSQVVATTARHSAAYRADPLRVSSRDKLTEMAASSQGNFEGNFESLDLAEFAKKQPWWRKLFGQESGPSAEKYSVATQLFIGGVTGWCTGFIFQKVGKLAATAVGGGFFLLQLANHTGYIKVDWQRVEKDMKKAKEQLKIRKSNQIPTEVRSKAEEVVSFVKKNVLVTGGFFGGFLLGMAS
UniProt P07902: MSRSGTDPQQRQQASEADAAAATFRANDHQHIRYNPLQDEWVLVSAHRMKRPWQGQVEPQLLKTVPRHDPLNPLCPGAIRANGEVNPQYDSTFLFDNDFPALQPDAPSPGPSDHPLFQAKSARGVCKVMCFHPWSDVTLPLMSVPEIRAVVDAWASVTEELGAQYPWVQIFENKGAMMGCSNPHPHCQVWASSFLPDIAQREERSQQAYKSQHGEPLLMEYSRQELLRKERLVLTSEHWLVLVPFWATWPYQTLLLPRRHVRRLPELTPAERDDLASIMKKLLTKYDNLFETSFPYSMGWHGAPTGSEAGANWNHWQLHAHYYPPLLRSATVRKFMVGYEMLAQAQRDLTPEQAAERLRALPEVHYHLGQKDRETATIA
UniProt O14772: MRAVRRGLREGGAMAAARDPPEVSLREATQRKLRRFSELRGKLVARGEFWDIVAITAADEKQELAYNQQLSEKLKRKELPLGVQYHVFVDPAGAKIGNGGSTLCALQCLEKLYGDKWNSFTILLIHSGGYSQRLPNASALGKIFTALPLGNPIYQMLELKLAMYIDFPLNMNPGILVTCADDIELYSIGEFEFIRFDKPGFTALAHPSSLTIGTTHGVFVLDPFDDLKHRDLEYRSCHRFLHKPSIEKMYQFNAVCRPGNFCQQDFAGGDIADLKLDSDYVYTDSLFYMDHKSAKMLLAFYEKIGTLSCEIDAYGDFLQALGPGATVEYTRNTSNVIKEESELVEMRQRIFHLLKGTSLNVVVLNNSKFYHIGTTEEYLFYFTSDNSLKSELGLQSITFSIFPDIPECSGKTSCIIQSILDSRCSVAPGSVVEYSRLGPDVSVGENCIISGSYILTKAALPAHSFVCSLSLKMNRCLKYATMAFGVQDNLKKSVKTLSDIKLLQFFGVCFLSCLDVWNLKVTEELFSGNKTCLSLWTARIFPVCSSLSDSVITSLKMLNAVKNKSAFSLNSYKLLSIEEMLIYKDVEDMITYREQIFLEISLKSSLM
UniProt O94915: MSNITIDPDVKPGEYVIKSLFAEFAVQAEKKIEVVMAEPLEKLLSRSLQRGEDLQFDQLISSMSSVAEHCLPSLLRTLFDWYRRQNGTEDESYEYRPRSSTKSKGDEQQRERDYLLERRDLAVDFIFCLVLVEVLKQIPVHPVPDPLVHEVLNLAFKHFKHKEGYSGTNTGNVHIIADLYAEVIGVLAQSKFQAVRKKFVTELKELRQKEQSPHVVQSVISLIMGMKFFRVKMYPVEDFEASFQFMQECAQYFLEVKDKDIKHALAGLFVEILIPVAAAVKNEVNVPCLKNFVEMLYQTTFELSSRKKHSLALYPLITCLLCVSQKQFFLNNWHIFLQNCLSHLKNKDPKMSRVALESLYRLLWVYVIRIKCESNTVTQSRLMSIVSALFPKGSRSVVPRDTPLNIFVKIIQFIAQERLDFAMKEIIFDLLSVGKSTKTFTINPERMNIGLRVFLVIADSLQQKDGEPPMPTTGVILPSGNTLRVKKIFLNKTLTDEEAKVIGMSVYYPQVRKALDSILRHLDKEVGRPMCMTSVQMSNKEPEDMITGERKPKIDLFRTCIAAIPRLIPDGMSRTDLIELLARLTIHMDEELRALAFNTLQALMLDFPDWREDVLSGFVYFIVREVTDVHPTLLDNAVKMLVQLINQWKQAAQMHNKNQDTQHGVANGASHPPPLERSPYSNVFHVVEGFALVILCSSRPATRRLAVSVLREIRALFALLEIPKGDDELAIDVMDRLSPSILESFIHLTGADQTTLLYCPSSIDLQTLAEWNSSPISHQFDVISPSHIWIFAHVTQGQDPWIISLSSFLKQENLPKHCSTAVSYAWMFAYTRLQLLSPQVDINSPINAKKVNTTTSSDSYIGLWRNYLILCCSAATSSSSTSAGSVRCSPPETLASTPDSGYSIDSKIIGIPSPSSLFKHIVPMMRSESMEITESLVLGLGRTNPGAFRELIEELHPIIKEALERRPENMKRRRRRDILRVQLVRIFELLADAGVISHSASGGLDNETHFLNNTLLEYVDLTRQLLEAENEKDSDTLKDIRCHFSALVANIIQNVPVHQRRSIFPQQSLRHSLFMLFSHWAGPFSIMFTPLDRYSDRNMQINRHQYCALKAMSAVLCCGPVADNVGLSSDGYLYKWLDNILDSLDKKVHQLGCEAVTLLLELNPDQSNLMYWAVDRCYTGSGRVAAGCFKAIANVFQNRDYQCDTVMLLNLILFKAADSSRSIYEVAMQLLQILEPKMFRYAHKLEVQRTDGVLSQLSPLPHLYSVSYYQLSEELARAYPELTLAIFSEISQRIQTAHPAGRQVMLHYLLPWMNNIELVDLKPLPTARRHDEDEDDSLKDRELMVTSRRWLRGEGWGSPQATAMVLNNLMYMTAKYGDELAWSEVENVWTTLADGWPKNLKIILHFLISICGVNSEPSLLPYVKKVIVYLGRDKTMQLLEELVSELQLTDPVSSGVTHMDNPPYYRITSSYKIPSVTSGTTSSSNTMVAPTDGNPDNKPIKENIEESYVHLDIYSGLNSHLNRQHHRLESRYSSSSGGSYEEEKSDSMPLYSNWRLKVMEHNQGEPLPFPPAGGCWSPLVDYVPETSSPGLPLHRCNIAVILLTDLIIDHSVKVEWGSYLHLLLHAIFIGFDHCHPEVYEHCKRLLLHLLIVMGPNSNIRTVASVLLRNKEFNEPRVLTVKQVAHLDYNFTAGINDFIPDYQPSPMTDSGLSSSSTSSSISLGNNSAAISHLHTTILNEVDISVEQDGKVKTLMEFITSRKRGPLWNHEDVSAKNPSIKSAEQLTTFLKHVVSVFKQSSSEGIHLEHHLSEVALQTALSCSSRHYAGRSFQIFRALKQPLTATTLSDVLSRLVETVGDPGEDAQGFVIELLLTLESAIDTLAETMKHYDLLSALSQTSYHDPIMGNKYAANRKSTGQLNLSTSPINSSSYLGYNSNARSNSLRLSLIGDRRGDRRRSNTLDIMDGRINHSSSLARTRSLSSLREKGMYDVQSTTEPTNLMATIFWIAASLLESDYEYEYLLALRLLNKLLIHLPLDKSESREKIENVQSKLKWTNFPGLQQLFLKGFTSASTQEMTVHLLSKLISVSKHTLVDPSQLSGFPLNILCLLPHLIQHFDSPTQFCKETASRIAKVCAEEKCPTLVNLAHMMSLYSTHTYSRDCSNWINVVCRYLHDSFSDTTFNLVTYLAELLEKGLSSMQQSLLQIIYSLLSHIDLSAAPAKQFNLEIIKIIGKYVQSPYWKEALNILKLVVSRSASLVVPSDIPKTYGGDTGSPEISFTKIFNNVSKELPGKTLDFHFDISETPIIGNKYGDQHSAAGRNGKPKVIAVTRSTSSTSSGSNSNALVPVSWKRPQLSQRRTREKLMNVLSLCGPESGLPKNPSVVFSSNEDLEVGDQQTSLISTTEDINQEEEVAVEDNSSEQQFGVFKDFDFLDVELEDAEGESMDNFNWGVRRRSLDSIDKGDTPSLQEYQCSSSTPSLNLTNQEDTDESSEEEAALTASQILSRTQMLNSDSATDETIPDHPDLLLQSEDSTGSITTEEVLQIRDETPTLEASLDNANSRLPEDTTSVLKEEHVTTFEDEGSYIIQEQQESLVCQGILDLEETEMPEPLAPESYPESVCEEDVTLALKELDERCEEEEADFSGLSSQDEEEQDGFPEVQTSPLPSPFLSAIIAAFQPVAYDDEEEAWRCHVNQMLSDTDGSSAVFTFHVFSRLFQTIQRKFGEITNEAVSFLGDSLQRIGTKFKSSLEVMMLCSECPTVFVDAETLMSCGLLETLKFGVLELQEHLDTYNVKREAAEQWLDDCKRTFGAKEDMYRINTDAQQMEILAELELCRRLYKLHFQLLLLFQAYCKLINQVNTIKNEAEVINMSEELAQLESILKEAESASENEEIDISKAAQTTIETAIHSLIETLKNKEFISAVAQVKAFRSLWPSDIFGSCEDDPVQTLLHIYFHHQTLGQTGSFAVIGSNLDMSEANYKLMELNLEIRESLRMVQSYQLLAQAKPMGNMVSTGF
UniProt Q06547, whole entry, looked up: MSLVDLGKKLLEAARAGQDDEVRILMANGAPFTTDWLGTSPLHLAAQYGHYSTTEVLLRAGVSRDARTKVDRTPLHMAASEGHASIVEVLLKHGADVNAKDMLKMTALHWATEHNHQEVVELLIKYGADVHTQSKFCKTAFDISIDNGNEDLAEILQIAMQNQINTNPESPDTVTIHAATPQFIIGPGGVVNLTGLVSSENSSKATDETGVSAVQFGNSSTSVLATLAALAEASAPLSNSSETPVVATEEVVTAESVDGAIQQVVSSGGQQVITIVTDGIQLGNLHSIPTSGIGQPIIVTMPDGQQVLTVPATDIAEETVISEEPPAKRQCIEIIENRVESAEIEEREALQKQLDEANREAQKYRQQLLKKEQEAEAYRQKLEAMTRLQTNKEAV

Experiments:
Test in all cases: log2 fold change, soluble protein after heating vs DMSO (PISA); higher = thermal stabilisation; K562 lysate, 10 uM; active = over 0.2 and 3.5 SD of the protein, either way, in both replicates (recomputed)
alvocidib = compound: CN1CC[C@H](c2c(O)cc(O)c3c(=O)cc(-c4ccccc4Cl)oc23)[C@H](O)C1 [alvocidib]
Method in brief: (§1)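 Thermal stability, expressed as log-two fold change relative to solvent controls, is given from duplicates. Crude K562 extract in PBS pH 7.4 with 1 mM MgCl2, at 1 mg/mL protein, was treated with 10 μM compound for 30 min and heated in aliquots for 3 min across 48°C-58°C. After pooling, adjustment to 0.5% NP-40 at 4°C and centrifugation at 21,000xg for 90 min, supernatant protein was measured by TMTpro 16plex LC-MS/MS with channel sums equalised.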

Tubastatin A = compound: CN1CCc2c(c3ccccc3n2Cc2ccc(C(=O)NO)cc2)C1 [Tubastatin A]
Method in brief: as §1

[1] = compound: CNC(=O)C1=CC=CC=C1NC2=NC(=NC=C2Cl)NC3=C(C=C(C=C3)N4CCOCC4)OC
Method in brief: as §1

defactinib = compound: CNC(=O)c1ccc(Nc2ncc(C(F)(F)F)c(NCc3nccnc3N(C)S(C)(=O)=O)n2)cc1 [defactinib]
Method in brief: as §1

[2] = compound: CNc1nc(-c2ccc3c(N)n[nH]c3c2)cc(N2C[C@@H](C(=O)NC3CCCCC3)CC[C@H]2C)n1
Method in brief: as §1

encorafenib = compound: COC(=O)N[C@@H](C)CNc1nccc(-c2cn(C(C)C)nc2-c2cc(Cl)cc(NS(C)(=O)=O)c2F)n1 [encorafenib]
Method in brief: as §1

[3] = compound: COC(=O)[C@H](CCSC)NC(=O)C1=C(C=C(C=C1)NC[C@H](CS)N)C2=CC=CC=C2
Method in brief: as §1

alisertib = compound: COc1cc(Nc2ncc3c(n2)-c2ccc(Cl)cc2C(c2c(F)cccc2OC)=NC3)ccc1C(=O)O [alisertib]
Method in brief: as §1

[4] = compound: COc1cc2nc(-c3cc(F)ccc3O)nc(N[C@@H]3CNC[C@H]3C(C)(C)O)c2cc1OC
Method in brief: as §1

gefitinib = compound: COc1cc2ncnc(Nc3ccc(F)c(Cl)c3)c2cc1OCCCN1CCOCC1 [gefitinib]
Method in brief: as §1

lapatinib = compound: CS(=O)(=O)CCNCc1ccc(-c2ccc3ncnc(Nc4ccc(OCc5cccc(F)c5)c(Cl)c4)c3c2)o1 [lapatinib]
Method in brief: as §1

pictilisib = compound: CS(=O)(=O)N1CCN(Cc2cc3nc(-c4cccc5[nH]ncc45)nc(N4CCOCC4)c3s2)CC1 [pictilisib]
Method in brief: as §1

crizotinib = compound: C[C@@H](Oc1cc(-c2cnn(C3CCNCC3)c2)cnc1N)c1c(Cl)ccc(F)c1Cl [crizotinib]
Method in brief: as §1

[5] = compound: C[C@H](C1=CC=C(C=C1)C(=O)NC2=C3C=CNC3=NC=C2)N
Method in brief: as §1

duvelisib = compound: C[C@H](Nc1ncnc2nc[nH]c12)c1cc2cccc(Cl)c2c(=O)n1-c1ccccc1 [duvelisib]
Method in brief: as §1

gandotinib = compound: Cc1cc(Nc2cc(CN3CCOCC3)c3nc(C)c(Cc4ccc(Cl)cc4F)n3n2)n[nH]1 [gandotinib]
Method in brief: as §1

tozasertib = compound: Cc1cc(Nc2cc(N3CCN(C)CC3)nc(Sc3ccc(NC(=O)C4CC4)cc3)n2)n[nH]1 [tozasertib]
Method in brief: as §1

doramapimod = compound: Cc1ccc(-n2nc(C(C)(C)C)cc2NC(=O)Nc2ccc(OCCN3CCOCC3)c3ccccc23)cc1 [doramapimod]
Method in brief: as §1

bafetinib = compound: Cc1ccc(NC(=O)c2ccc(CN3CC[C@H](N(C)C)C3)c(C(F)(F)F)c2)cc1Nc1nccc(-c2cncnc2)n1 [bafetinib]
Method in brief: as §1

[6] = compound: Cc1cccc(CC(=O)N2CCc3c2ccc(-c2cn(C)c4ncnc(N)c24)c3F)n1
Method in brief: as §1

Target	log2 fold change (alvocidib)	log2 fold change (Tubastatin A)	log2 fold change [1]	log2 fold change (defactinib)	log2 fold change [2]	log2 fold change (encorafenib)	log2 fold change [3]	log2 fold change (alisertib)	log2 fold change [4]	log2 fold change (gefitinib)	log2 fold change (lapatinib)	log2 fold change (pictilisib)	log2 fold change (crizotinib)	log2 fold change [5]	log2 fold change (duvelisib)	log2 fold change (gandotinib)	log2 fold change (tozasertib)	log2 fold change (doramapimod)	log2 fold change (bafetinib)	log2 fold change [6]
FTSJ1 (UniProt Q9UET6)	inactive: 0.003	inactive: -0.038	inactive: 0.049	inactive: -0.021	inactive: -0.016	inactive: -0.025	inactive: 0.089	inactive: 0.004	inactive: 0.005	inactive: -0.001	inactive: 0.01	inactive: -0.002	inactive: -0.051	inactive: 0.051	inactive: -0.009	inactive: -0.088	inactive: -0.064	inactive: 0.03	inactive: 0.041	inactive: -0.052
G3BP2 (UniProt Q9UN86)	inactive: 0.022	inactive: 0.01	inactive: -0.011	inactive: -0.039	inactive: 0.043	inactive: -0.01	inactive: 0.072	inactive: 0.003	inactive: -0.002	inactive: -0.057	inactive: -0.006	inactive: -0.006	inactive: -0.004	inactive: 0.059	inactive: 0.017	inactive: -0.077	inactive: -0.005	inactive: -0.031	inactive: -0.006	inactive: -0.042
GDI2 (UniProt P50395)	inactive: 0.048	inactive: 0.043	inactive: -0.023	inactive: 0.004	inactive: -0.021	inactive: -0.033	inactive: 0.014	inactive: 0.02	inactive: 0.01	inactive: -0.043	inactive: 0.024	inactive: 0.027	inactive: 0.032	inactive: 0.15	inactive: -0.008	inactive: -0.072	inactive: 0.002	inactive: -0.028	inactive: 0.139	inactive: -0.062
GATAD2A isoform 3 (UniProt Q86YP4)	inactive: -0.028	inactive: -0.045	inactive: 0.015	inactive: 0	inactive: 0.025	inactive: 0.005	inactive: 0.072	inactive: 0.006	inactive: 0.01	inactive: -0.023	inactive: -0.012	inactive: -0.031	inactive: -0.011	inactive: -0.031	inactive: -0.037	inactive: 0.016	inactive: -0.009	inactive: 0.026	inactive: 0.001	inactive: 0.061
FOXK1 (UniProt P85037)	inactive: -0.037	inactive: -0.116	inactive: 0.025	inactive: 0.003	inactive: 0.059	inactive: 0.009	inactive: 0.09	inactive: 0.016	inactive: 0.014	inactive: 0.003	inactive: 0.006	inactive: -0.036	inactive: 0.025	inactive: -0.024	inactive: -0.043	inactive: 0.002	inactive: 0.009	inactive: 0.035	inactive: 0.029	inactive: 0.034
GALNT12 (UniProt Q8IXK2)	inactive: 0.015	inactive: 0.083	inactive: -0.016	inactive: -0.059	inactive: -0.036	inactive: -0.007	inactive: 0.031	inactive: -0.017	inactive: -0.023	inactive: 0.113	inactive: -0.06	inactive: 0.042	inactive: -0.028	inactive: -0.096	inactive: -0.143	inactive: -0.05	inactive: 0.025	inactive: 0.082	inactive: -0.109	inactive: 0.032
GABARAPL2 (UniProt P60520)	inactive: 0.007	inactive: 0.072	inactive: -0.017	inactive: 0.008	inactive: 0.003	inactive: -0.029	inactive: -0.071	inactive: -0.027	inactive: 0.011	inactive: 0.015	inactive: -0.02	inactive: 0.004	inactive: 0.031	inactive: -0.005	inactive: 0.018	inactive: 0.005	inactive: 0.024	inactive: -0.008	inactive: -0.022	inactive: -0.043
GALK1 isoform 2 (UniProt P51570)	inactive: 0.035	inactive: -0.132	inactive: -0.005	inactive: -0.002	inactive: 0	inactive: 0.02	inactive: -0.171	inactive: 0.054	inactive: -0.016	inactive: 0.034	inactive: -0.002	inactive: -0.02	inactive: -0.015	inactive: 0.092	inactive: -0.028	inactive: -0.098	inactive: 0.03	inactive: 0.039	inactive: -0.007	inactive: -0.013
GCC2 (UniProt Q8IWJ2)	inactive: -0.031	inactive: -0.016	inactive: 0.027	inactive: -0.015	inactive: 0.017	inactive: 0.031	inactive: -0.017	inactive: -0.016	inactive: -0.006	inactive: 0.006	inactive: 0.015	inactive: 0.004	inactive: 0.001	inactive: -0.054	inactive: 0.012	inactive: 0.045	inactive: 0.008	inactive: 0.046	inactive: -0.025	inactive: 0.029
FOXJ3 (UniProt Q9UPW0)	inactive: -0.009	inactive: -0.03	inactive: -0.031	inactive: 0.014	inactive: 0.033	inactive: 0.055	inactive: -0.137	inactive: -0.028	inactive: 0	inactive: 0.054	inactive: 0.039	inactive: -0.049	inactive: -0.053	inactive: 0.101	inactive: 0.035	inactive: -0.042	inactive: 0.021	inactive: 0	inactive: -0.139	inactive: -0.003
FUNDC2 (UniProt Q9BWH2)	inactive: -0.022	inactive: 0.01	inactive: 0.001	inactive: -0.056	inactive: -0.018	inactive: -0.059	inactive: -0.012	inactive: -0.014	inactive: -0.002	inactive: 0.025	inactive: -0.012	inactive: -0.007	inactive: 0.022	inactive: -0.046	inactive: -0.006	inactive: 0.078	inactive: -0.035	inactive: -0.046	inactive: -0.013	inactive: 0.038
GALT (UniProt P07902)	inactive: -0.024	inactive: 0.087	inactive: 0.012	inactive: 0.103	inactive: 0.108	inactive: 0.001	inactive: 0.076	inactive: -0.073	inactive: 0.038	inactive: 0.024	inactive: 0.009	inactive: -0.027	inactive: -0.006	inactive: -0.055	inactive: -0.056	inactive: 0.079	inactive: 0.003	inactive: 0.054	inactive: -0.054	inactive: 0.107
FPGT (UniProt O14772)	inactive: 0.031	inactive: -0.111	inactive: -0.011	inactive: 0.008	inactive: -0.02	inactive: 0.011	inactive: 0.058	inactive: 0.002	inactive: 0.002	inactive: 0.013	inactive: 0.005	inactive: 0.019	inactive: -0.077	active: 0.319	inactive: 0.006	inactive: -0.085	inactive: 0.012	inactive: 0.054	inactive: -0.043	inactive: -0.012
FRYL (UniProt O94915)	inactive: -0.004	inactive: -0.067	inactive: 0.01	inactive: -0.016	inactive: -0.02	inactive: 0.032	inactive: 0.04	inactive: 0.006	inactive: 0.005	inactive: 0.007	inactive: -0.039	inactive: -0.012	inactive: -0.055	inactive: -0.057	inactive: -0.048	inactive: -0.075	inactive: -0.023	inactive: 0.042	inactive: -0.059	inactive: 0.03
GALNS (UniProt P34059)	inactive: -0.071	inactive: -0.015	inactive: 0.01	inactive: -0.03	inactive: 0.014	inactive: 0.008	inactive: 0.026	inactive: -0.016	inactive: 0.047	inactive: -0.023	inactive: 0.003	inactive: -0.003	inactive: 0.055	inactive: -0.033	inactive: -0.014	inactive: 0.059	inactive: 0.01	inactive: -0.024	inactive: -0.027	inactive: 0.004
GABPB1 (UniProt Q06547)	inactive: 0.181	inactive: -0.001	inactive: -0.028	inactive: 0.005	inactive: 0	inactive: 0.036	inactive: 0.097	inactive: -0.016	inactive: -0.043	inactive: 0.024	inactive: -0.042	inactive: -0.052	inactive: 0.021	inactive: 0.192	inactive: 0.018	inactive: -0.194	inactive: -0.004	inactive: 0.026	inactive: -0.071	inactive: -0.082

Taken from above:
GDI2 (UniProt P50395) – log2 fold change (gandotinib): inactive: -0.072
FTSJ1 (UniProt Q9UET6) – log2 fold change (lapatinib): inactive: 0.01
